Measurements taken from the supplement of paper PMC10849652.
The list shows a part of the results.

The chains behind the UniProt entries cited, without tags or fusion partners. Where a name states a change or a piece, a line headed by the entry shows the natural chain unless it says otherwise.
UniProt P29692: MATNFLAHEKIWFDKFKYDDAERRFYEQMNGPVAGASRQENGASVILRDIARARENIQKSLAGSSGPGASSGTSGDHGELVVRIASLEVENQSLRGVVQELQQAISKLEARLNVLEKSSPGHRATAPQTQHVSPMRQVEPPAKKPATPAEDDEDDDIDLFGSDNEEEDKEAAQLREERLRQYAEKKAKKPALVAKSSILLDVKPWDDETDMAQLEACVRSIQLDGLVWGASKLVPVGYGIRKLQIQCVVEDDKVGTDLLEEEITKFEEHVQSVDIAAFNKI
UniProt Q8N3D4: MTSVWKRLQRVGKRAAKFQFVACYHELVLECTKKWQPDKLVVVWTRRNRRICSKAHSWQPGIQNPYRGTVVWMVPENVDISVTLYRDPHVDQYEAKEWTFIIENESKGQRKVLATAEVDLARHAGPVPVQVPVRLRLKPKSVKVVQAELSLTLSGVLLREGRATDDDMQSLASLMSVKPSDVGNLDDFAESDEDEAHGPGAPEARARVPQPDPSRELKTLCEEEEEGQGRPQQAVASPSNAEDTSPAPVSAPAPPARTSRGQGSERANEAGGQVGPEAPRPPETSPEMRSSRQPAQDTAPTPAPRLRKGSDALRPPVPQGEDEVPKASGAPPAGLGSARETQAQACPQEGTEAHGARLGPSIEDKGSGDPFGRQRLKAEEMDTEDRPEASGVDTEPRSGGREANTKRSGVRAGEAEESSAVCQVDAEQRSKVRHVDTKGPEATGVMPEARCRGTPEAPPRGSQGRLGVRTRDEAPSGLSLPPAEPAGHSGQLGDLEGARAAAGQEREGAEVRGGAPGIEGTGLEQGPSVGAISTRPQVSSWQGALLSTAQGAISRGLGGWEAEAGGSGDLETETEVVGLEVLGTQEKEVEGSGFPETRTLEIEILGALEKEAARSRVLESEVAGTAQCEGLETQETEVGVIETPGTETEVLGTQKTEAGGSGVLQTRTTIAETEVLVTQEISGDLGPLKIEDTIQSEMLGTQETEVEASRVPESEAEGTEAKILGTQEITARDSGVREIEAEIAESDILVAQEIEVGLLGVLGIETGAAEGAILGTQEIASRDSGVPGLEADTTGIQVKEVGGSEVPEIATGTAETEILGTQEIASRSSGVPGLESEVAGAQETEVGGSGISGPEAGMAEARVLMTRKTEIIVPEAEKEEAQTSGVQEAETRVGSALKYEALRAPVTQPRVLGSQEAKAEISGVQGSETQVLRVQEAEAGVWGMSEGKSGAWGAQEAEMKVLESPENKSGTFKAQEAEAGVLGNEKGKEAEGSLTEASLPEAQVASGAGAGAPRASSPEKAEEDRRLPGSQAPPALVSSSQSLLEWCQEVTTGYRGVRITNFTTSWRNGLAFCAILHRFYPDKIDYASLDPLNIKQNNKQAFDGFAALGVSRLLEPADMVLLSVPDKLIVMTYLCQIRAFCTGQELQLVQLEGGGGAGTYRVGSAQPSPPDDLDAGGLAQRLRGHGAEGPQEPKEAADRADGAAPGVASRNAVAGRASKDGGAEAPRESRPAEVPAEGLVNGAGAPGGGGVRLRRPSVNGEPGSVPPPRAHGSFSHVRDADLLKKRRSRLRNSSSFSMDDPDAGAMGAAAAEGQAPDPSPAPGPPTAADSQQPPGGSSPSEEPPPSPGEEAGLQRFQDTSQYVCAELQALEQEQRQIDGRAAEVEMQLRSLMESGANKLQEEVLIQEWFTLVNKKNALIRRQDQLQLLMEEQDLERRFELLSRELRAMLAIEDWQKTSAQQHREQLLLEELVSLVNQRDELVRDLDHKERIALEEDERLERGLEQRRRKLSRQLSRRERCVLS
UniProt Q99848: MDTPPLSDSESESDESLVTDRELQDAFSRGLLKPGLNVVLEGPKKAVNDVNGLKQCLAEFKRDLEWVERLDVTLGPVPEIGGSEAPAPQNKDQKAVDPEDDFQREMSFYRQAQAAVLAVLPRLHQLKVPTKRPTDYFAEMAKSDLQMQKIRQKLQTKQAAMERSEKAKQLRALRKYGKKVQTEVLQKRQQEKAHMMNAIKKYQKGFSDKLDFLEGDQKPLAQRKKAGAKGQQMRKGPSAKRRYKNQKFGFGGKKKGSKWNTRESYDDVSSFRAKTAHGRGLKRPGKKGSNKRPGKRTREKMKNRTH
UniProt Q56P03: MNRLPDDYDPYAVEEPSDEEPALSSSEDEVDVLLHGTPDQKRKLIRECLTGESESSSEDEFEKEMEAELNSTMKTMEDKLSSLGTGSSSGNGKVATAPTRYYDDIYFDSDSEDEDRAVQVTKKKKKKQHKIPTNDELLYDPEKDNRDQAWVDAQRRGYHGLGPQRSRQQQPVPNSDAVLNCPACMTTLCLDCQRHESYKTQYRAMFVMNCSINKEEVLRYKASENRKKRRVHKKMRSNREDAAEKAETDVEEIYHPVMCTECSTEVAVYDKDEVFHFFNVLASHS
UniProt Q8N9N8: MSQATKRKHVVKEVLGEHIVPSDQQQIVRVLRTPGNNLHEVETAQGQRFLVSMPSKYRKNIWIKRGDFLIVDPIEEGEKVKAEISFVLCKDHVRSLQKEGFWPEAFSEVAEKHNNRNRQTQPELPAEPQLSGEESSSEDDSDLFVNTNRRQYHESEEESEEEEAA
UniProt P26641, whole entry, looked up: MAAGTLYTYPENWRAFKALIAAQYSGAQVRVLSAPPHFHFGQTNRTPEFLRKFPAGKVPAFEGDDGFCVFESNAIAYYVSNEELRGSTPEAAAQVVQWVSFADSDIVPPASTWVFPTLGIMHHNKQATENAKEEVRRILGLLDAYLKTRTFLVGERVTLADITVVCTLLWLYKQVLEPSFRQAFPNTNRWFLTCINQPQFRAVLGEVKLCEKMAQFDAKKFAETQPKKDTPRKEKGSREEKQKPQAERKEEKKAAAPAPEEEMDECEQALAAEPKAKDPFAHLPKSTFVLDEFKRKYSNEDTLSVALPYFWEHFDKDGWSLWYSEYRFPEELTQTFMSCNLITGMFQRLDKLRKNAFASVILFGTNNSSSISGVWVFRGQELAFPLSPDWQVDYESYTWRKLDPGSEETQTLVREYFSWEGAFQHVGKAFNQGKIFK
UniProt Q8NDI1: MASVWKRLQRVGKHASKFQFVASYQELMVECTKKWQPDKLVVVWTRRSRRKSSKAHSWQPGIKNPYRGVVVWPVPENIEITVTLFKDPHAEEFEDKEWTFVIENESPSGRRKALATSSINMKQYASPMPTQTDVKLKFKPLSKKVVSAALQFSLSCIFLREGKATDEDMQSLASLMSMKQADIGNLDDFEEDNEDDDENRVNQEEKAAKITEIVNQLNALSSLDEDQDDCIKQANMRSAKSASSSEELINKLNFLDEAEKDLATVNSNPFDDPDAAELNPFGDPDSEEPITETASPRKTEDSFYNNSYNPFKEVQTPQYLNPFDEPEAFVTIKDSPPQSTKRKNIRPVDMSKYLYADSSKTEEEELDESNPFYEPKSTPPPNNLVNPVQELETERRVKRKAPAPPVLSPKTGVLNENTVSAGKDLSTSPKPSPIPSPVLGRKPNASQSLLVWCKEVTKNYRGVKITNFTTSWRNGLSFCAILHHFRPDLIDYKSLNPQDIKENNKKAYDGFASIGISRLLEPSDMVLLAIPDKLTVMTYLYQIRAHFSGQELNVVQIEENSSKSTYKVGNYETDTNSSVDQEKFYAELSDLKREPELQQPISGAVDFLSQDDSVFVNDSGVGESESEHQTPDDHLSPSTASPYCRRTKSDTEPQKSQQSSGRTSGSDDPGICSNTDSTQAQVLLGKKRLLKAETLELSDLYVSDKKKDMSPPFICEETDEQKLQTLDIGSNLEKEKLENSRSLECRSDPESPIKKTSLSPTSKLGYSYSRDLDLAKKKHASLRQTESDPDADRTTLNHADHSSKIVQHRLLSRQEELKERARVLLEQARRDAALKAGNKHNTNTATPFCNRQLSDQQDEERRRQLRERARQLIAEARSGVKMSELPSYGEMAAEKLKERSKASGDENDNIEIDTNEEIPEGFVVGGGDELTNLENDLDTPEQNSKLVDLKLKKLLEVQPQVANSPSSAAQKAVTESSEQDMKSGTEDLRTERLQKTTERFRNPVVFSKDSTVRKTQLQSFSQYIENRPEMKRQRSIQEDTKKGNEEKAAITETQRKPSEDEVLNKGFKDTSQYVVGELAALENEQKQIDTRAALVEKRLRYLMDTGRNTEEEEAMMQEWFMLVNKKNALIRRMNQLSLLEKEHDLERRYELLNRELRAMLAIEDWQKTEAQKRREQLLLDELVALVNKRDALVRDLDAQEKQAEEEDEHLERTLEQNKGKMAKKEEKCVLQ
UniProt P63172, whole entry, looked up: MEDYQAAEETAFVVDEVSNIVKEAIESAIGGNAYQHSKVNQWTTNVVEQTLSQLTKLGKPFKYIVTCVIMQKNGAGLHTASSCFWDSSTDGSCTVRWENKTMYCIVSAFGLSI
UniProt Q9H2P9: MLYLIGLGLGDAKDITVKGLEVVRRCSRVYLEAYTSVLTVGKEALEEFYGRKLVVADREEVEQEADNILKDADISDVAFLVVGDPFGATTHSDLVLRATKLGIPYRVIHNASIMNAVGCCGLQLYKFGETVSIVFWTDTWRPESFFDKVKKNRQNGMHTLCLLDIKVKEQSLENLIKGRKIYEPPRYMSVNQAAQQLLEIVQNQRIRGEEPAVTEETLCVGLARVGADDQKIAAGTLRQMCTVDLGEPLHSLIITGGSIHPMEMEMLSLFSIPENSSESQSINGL
UniProt P24534: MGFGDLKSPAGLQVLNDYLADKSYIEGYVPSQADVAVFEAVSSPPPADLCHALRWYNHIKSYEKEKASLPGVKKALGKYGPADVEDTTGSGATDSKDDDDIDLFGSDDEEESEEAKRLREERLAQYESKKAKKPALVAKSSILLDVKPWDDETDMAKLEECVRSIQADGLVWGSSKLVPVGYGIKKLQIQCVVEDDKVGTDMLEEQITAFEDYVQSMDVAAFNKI
UniProt Q3B7T1: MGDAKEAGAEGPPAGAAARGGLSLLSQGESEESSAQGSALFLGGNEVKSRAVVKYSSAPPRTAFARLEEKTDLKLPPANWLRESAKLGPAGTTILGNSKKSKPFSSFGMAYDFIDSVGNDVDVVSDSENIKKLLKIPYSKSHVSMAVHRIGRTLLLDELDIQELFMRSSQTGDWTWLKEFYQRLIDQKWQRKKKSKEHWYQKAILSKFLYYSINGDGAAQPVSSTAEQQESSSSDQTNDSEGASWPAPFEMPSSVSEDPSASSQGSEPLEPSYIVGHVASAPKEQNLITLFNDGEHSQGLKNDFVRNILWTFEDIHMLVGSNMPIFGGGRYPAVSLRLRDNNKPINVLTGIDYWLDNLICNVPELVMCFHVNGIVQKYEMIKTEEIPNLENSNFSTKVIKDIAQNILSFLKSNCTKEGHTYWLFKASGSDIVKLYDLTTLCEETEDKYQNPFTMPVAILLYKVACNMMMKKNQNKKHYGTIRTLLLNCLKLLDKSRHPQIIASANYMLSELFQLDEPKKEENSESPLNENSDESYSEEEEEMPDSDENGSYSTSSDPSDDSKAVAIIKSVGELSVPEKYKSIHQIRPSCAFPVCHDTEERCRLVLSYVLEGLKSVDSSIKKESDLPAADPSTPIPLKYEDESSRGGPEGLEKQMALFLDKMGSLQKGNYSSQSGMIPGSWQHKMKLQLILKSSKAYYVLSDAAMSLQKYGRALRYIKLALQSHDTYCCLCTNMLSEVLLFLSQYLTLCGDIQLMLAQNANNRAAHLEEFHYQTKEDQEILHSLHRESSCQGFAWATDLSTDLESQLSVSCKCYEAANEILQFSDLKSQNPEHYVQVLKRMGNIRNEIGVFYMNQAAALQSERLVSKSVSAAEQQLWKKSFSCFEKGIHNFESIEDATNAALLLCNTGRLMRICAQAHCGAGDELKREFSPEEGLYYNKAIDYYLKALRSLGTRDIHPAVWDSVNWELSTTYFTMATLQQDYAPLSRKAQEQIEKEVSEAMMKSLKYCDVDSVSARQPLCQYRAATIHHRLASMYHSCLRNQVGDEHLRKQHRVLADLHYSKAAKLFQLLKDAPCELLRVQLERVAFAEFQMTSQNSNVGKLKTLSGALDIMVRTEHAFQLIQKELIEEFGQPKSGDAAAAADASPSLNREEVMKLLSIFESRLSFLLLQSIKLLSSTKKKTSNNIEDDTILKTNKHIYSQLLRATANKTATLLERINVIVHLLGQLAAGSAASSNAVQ
UniProt Q9BQC3: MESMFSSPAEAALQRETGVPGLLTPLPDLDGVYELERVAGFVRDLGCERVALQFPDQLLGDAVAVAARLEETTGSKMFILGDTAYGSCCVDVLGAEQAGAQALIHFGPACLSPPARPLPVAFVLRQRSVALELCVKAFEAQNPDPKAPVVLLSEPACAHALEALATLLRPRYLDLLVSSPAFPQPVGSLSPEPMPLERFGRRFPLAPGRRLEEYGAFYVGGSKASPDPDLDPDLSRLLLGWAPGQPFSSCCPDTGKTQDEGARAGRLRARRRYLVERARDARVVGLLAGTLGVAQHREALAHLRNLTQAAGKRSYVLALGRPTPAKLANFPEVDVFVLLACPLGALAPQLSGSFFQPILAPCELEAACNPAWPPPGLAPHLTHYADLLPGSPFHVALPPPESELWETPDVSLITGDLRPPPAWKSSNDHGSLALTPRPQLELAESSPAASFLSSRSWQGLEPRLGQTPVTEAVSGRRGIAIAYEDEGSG

Compound: C=CC(=O)N1CCC[C@@H](n2nc(-c3ccc(Oc4ccccc4)cc3)c3c(N)ncnc32)C1 [ibrutinib]
Test: log2 fold change, soluble protein after heating vs DMSO (PISA); higher = thermal stabilisation; K562 lysate, 10 uM; active = over 0.2 and 3.5 SD of the protein, either way, in both replicates (recomputed)
Summary of the method: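 K562 pellets were dounce-homogenised in PBS pH 7.4 with 1 mM MgCl2, and the crude extract at 1 mg/mL protein was treated with 10 μM compound for 30 min. Aliquots were heated for 3 min across 48°C-58°C, pooled, and brought to 0.5% NP-40 at 4°C; soluble protein was the supernatant after 21,000xg for 90 min. Soluble protein was quantified by TMTpro 16plex LC-MS/MS with channel sums equalised, and reported as log2 fold change in thermal stability against DMSO controls, with values from duplicates.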

log2 fold change, inactive:
EEF1D isoform 2 (UniProt P29692) 0.004
DSN1 (UniProt Q9H410) -0.004
EHBP1L1 (UniProt Q8N3D4) 0.015
EBNA1BP2 (UniProt Q99848) 0.021
EAPP (UniProt Q56P03) -0.105
DSTN (UniProt P60981) -0.011
EIF1AD (UniProt Q8N9N8) 0.052
EHD1 (UniProt Q9H4M9) 0.001
EEF1G isoform 2 (UniProt P26641) 0.038
ECT2 (UniProt Q9H8V3) 0.053
EHBP1 isoform 2 (UniProt Q8NDI1) 0.019
DYNLT1 (UniProt P63172) 0.077
DUSP3 (UniProt P51452) -0.041
EEF1A1, A0A087WVQ9 0.085
DPH5 isoform 5 (UniProt Q9H2P9) 0.043
DUT (UniProt P33316) -0.001
EEF1B2 (UniProt P24534) -0.008
DYNLL2 (UniProt Q96FJ2) -0.037
EDRF1 (UniProt Q3B7T1) 0.065
DUS1L (UniProt Q6P1R4) 0.03
E4F1 (UniProt Q66K89) 0.249
DPF2 (UniProt Q92785) 0.005
DPH2 (UniProt Q9BQC3) -0.014

Two entries drawn at random from those above:
log2 fold change, inactive:
DPH2 (UniProt Q9BQC3) -0.014
EEF1D isoform 2 (UniProt P29692) 0.004
